The other results are listed elsewhere or left out.
Compound: CS(=O)(=O)CCNCc1ccc(-c2ccc3ncnc(Nc4ccc(OCc5cccc(F)c5)c(Cl)c4)c3c2)o1 [lapatinib]
Experiment: log2 fold change, soluble protein after heating vs DMSO (PISA); higher = thermal stabilisation; K562 lysate, 10 uM; active = over 0.2 and 3.5 SD of the protein, either way, in both replicates (recomputed)
In short: (§1)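 Thermal stability, expressed as log-two fold change relative to solvent controls, is given from duplicates. Crude K562 extract in PBS pH 7.4 with 1 mM MgCl2, at 1 mg/mL protein, was treated with 10 μM compound for 30 min and heated in aliquots for 3 min across 48°C-58°C. After pooling, adjustment to 0.5% NP-40 at 4°C and centrifugation at 21,000xg for 90 min, supernatant protein was measured by TMTpro 16plex LC-MS/MS with channel sums equalised.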

Chains of the proteins cited; added tags and fusions are not shown. Lines headed by an entry give the natural chain unless they say otherwise; changes in a name come on top.
UniProt Q96QG7: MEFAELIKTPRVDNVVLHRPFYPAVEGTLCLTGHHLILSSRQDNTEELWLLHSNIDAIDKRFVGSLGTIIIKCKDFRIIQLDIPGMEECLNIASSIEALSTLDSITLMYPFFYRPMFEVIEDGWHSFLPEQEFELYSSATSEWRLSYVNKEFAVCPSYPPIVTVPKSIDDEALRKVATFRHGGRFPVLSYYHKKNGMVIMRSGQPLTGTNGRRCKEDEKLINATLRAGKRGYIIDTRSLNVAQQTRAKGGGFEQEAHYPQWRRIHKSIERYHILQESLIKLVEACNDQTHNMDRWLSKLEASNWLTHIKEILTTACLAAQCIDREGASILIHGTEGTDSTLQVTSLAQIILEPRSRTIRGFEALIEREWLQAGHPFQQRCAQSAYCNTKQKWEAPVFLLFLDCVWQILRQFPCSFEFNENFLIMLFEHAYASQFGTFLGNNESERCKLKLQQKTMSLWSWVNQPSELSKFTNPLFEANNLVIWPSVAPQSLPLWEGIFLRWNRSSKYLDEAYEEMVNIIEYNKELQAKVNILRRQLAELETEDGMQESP
UniProt P46199: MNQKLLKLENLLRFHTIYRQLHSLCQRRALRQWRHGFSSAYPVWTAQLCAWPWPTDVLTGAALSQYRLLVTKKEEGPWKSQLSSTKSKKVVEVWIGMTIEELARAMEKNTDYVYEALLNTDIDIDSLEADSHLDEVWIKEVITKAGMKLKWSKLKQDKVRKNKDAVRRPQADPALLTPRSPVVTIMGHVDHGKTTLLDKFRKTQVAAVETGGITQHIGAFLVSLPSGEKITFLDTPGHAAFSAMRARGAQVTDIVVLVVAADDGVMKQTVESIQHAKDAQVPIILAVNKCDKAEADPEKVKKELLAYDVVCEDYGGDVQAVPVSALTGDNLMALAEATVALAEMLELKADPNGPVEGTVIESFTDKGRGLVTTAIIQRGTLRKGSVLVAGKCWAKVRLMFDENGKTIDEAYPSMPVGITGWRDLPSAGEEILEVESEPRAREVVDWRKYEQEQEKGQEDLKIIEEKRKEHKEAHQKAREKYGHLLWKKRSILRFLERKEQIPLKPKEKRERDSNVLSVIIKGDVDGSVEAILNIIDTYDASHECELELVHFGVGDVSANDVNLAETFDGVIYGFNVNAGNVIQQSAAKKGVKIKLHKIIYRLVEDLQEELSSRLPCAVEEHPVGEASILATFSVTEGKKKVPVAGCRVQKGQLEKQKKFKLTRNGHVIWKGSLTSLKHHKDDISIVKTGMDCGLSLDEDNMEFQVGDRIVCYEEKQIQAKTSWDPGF
UniProt Q9HD23: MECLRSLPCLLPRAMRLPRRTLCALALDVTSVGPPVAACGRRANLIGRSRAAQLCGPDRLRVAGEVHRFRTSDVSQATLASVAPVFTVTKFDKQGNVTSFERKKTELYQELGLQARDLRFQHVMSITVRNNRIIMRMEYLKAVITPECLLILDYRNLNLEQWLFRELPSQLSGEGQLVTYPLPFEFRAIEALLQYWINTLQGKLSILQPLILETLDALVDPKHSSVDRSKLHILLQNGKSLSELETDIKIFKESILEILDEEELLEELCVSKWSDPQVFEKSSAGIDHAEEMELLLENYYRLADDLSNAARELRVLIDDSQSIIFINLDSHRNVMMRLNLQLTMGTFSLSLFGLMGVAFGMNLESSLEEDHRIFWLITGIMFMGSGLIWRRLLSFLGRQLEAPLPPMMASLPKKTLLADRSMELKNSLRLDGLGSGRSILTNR
UniProt Q9Y3D2: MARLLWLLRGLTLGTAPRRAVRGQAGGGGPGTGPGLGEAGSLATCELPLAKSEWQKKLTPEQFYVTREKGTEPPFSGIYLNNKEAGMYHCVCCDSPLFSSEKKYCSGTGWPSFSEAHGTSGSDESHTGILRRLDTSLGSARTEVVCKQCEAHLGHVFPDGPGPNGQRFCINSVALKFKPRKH
UniProt Q13330: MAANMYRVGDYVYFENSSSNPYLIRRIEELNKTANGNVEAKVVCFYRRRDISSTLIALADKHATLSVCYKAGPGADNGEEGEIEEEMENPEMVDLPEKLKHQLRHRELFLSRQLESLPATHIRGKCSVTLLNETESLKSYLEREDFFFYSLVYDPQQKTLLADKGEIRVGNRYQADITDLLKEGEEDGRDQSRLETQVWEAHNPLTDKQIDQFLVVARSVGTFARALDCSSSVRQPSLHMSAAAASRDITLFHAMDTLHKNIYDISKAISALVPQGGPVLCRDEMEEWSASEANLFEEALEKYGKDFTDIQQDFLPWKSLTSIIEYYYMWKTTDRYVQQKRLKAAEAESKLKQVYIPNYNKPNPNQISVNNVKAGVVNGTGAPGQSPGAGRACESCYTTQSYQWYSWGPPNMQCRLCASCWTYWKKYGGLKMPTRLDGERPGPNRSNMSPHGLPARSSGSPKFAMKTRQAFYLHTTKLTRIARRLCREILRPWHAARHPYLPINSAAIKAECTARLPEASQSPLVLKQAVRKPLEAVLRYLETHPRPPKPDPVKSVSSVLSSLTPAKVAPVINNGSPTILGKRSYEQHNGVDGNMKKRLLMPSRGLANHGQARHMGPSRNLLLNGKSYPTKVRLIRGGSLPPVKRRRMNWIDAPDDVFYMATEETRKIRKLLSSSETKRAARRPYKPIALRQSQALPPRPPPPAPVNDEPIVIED
UniProt Q96DH6: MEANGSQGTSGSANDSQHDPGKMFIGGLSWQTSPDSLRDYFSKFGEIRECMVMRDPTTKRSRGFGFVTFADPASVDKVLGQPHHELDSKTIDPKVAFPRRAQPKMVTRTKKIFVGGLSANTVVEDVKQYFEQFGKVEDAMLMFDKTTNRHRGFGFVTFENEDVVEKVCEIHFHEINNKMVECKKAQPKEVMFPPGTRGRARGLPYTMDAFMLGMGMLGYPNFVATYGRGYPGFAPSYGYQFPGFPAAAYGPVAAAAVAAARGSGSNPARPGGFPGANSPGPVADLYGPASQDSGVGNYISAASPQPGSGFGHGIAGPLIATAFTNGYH
UniProt P82909: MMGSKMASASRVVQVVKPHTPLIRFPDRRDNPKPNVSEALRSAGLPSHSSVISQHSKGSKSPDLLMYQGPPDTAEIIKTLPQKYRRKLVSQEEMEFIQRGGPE
UniProt P26038, whole entry, looked up: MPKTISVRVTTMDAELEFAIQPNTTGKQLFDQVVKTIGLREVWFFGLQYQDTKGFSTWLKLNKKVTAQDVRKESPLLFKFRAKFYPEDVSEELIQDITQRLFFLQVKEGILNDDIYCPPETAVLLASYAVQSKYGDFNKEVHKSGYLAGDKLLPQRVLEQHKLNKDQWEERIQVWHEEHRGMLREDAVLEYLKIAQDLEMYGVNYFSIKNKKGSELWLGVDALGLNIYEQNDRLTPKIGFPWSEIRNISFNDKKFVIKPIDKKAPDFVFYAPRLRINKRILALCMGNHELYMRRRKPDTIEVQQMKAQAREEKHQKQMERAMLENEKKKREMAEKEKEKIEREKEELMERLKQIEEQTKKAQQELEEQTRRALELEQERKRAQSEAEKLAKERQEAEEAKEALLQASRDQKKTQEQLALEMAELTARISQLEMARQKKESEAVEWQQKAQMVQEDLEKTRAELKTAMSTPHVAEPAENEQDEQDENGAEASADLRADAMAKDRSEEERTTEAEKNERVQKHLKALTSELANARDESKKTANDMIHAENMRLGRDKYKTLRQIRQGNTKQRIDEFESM
UniProt Q99707: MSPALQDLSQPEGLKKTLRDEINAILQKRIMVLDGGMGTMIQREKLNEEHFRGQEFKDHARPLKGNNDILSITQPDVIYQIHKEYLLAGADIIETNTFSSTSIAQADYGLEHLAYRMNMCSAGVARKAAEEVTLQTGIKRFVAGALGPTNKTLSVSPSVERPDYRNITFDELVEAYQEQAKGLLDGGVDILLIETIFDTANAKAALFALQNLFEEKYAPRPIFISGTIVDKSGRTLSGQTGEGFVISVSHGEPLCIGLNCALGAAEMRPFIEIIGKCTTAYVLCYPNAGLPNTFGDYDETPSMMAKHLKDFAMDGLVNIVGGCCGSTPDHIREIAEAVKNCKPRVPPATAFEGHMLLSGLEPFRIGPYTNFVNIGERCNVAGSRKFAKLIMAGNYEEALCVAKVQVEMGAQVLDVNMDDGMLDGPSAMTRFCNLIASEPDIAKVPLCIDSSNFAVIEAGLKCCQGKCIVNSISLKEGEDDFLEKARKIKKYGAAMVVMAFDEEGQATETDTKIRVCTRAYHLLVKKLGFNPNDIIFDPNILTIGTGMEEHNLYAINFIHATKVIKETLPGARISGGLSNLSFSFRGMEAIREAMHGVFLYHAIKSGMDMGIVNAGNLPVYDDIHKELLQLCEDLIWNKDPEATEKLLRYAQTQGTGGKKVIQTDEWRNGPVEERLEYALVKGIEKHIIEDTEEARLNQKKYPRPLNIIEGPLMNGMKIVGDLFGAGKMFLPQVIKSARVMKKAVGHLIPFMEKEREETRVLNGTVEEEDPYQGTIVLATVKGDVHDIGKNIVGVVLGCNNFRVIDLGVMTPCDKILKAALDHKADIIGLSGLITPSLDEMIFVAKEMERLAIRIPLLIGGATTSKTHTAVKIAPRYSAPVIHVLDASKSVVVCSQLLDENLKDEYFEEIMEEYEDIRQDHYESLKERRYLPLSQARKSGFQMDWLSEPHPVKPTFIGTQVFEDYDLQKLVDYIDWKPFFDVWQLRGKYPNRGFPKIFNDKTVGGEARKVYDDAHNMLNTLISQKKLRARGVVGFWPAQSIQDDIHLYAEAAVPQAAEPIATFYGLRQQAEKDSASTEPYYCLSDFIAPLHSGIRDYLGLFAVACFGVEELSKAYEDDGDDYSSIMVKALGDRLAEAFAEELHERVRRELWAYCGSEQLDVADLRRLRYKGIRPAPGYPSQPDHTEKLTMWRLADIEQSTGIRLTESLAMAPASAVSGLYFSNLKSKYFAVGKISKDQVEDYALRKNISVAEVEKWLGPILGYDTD
UniProt P13995: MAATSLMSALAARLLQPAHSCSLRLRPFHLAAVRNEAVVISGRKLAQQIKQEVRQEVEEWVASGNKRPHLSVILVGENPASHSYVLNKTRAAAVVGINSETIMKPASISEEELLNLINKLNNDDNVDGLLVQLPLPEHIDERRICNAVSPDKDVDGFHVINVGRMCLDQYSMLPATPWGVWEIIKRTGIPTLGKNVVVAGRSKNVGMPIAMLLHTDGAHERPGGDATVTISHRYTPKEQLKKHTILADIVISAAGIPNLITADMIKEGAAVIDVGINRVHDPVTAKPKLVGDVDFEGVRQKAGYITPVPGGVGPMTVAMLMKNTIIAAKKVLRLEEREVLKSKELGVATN
UniProt Q6P444: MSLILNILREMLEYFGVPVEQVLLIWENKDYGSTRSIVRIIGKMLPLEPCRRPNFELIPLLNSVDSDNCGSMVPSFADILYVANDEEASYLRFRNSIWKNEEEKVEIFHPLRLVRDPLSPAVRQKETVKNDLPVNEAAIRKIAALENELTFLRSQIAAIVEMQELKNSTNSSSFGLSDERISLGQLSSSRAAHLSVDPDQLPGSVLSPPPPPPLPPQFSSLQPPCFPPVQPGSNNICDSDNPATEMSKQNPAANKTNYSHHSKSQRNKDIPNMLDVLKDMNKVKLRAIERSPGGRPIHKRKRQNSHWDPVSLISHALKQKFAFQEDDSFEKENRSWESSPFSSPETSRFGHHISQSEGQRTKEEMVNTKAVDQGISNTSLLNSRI
UniProt Q9NZJ7, whole entry, looked up: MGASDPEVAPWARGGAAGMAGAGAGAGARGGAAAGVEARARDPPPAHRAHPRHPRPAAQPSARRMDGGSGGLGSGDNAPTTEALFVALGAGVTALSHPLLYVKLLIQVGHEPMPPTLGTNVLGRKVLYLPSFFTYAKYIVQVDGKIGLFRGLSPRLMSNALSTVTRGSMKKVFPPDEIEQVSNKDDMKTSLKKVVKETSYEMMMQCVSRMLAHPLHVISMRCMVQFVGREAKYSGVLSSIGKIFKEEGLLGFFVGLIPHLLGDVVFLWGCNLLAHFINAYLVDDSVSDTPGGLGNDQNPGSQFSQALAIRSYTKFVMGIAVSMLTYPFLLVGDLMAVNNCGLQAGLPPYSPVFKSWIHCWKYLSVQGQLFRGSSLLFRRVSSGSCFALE
UniProt Q13505: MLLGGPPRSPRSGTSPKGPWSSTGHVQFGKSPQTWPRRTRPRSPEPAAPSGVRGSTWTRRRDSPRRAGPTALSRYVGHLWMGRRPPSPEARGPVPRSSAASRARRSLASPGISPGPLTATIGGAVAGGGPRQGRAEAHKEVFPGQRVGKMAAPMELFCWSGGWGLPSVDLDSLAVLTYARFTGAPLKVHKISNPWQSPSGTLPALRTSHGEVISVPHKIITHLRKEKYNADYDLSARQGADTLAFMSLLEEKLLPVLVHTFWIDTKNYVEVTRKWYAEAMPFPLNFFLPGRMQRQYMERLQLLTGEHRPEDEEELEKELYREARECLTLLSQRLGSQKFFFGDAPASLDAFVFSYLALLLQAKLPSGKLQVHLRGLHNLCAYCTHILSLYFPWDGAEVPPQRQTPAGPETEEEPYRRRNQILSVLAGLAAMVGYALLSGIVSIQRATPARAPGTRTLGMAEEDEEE

| Target | log2 fold change |
| --- | --- |
| MRPL4 (UniProt Q9BYD3) | inactive: 0.039 |
| MRPS9 (UniProt P82933) | inactive: 0.012 |
| MTMR9 (UniProt Q96QG7) | inactive: -0.071 |
| MRPL28 (UniProt Q13084) | inactive: -0.046 |
| MRPL41 (UniProt Q8IXM3) | inactive: -0.004 |
| MRPS22 (UniProt P82650) | inactive: -0.003 |
| MRPL45 (UniProt Q9BRJ2) | inactive: -0.037 |
| MRPS18A isoform 2 (UniProt Q9NVS2) | inactive: 0.005 |
| MRPL50 (UniProt Q8N5N7) | inactive: 0.048 |
| MTIF2 (UniProt P46199) | inactive: 0.017 |
| MRS2 (UniProt Q9HD23) | inactive: -0.014 |
| MT-ND1 (UniProt P03886) | inactive: -0.025 |
| MRPS30 (UniProt Q9NP92) | inactive: 0.003 |
| MTM1 (UniProt Q13496) | inactive: 0.017 |
| MRPS18B (UniProt Q9Y676) | inactive: -0.033 |
| MRPL32 (UniProt Q9BYC8) | inactive: 0.053 |
| MRPS5 (UniProt P82675) | inactive: 0.025 |
| MSH6 (UniProt P52701) | inactive: -0.004 |
| MSRB2 (UniProt Q9Y3D2) | inactive: -0.029 |
| MTA1 (UniProt Q13330) | inactive: -0.002 |

| Target | log2 fold change |
| --- | --- |
| MSI2 (UniProt Q96DH6) | inactive: 0 |
| MRPL9 (UniProt Q9BYD2) | inactive: 0.037 |
| MRPS10 (UniProt P82664) | inactive: 0.027 |
| MRPS36 (UniProt P82909) | inactive: 0.095 |
| MSN (UniProt P26038) | inactive: -0.013 |
| MRPS28 (UniProt Q9Y2Q9) | inactive: 0.054 |
| MTR (UniProt Q99707) | inactive: 0.042 |
| MTHFD2 (UniProt P13995) | inactive: -0.005 |
| MRPS31 (UniProt Q92665) | inactive: 0.012 |
| MTFR2 (UniProt Q6P444) | inactive: -0.016 |
| MRPL40 (UniProt Q9NQ50) | inactive: -0.003 |
| MRPL54 (UniProt Q6P161) | inactive: -0.043 |
| MRPL44 (UniProt Q9H9J2) | inactive: -0.001 |
| MT-ATP6 (UniProt P00846) | inactive: -0.112 |
| MT-CO1 (UniProt P00395) | inactive: -0.046 |
| MRPL58 (UniProt Q14197) | inactive: 0.035 |
| MTA2 (UniProt O94776) | inactive: -0.003 |
| MTCH1 (UniProt Q9NZJ7) | inactive: 0.018 |
| MTX1 (UniProt Q13505) | inactive: 0.001 |

Compound: CS(=O)(=O)N1CCN(Cc2cc3nc(-c4cccc5[nH]ncc45)nc(N4CCOCC4)c3s2)CC1 [pictilisib]
Experiment: as above
In short: as §1

| Target | log2 fold change |
| --- | --- |
| MRPL4 (UniProt Q9BYD3) | inactive: -0.007 |
| MRPS9 (UniProt P82933) | inactive: 0.065 |
| MTMR9 (UniProt Q96QG7) | inactive: -0.055 |
| MRPL28 (UniProt Q13084) | inactive: 0.03 |
| MRPL41 (UniProt Q8IXM3) | inactive: -0.003 |
| MRPS22 (UniProt P82650) | inactive: -0.079 |
| MRPL45 (UniProt Q9BRJ2) | inactive: 0.041 |
| MRPS18A isoform 2 (UniProt Q9NVS2) | inactive: -0.046 |
| MRPL50 (UniProt Q8N5N7) | inactive: 0.006 |
| MTIF2 (UniProt P46199) | inactive: 0.008 |
| MRS2 (UniProt Q9HD23) | inactive: -0.01 |
| MT-ND1 (UniProt P03886) | inactive: -0.03 |
| MRPS30 (UniProt Q9NP92) | inactive: -0.009 |
| MTM1 (UniProt Q13496) | inactive: -0.038 |
| MRPS18B (UniProt Q9Y676) | inactive: 0.017 |
| MRPL32 (UniProt Q9BYC8) | inactive: -0.027 |
| MRPS5 (UniProt P82675) | inactive: -0.003 |
| MSH6 (UniProt P52701) | inactive: -0.005 |
| MSRB2 (UniProt Q9Y3D2) | inactive: -0.028 |
| MTA1 (UniProt Q13330) | inactive: 0 |

| Target | log2 fold change |
| --- | --- |
| MSI2 (UniProt Q96DH6) | inactive: -0.057 |
| MRPL9 (UniProt Q9BYD2) | inactive: -0.049 |
| MRPS10 (UniProt P82664) | inactive: -0.018 |
| MRPS36 (UniProt P82909) | inactive: -0.024 |
| MSN (UniProt P26038) | inactive: 0.019 |
| MRPS28 (UniProt Q9Y2Q9) | inactive: 0.028 |
| MTR (UniProt Q99707) | inactive: -0.017 |
| MTHFD2 (UniProt P13995) | inactive: 0.02 |
| MRPS31 (UniProt Q92665) | inactive: 0.012 |
| MTFR2 (UniProt Q6P444) | inactive: 0.019 |
| MRPL40 (UniProt Q9NQ50) | inactive: 0.093 |
| MRPL54 (UniProt Q6P161) | inactive: 0.075 |
| MRPL44 (UniProt Q9H9J2) | inactive: -0.03 |
| MT-ATP6 (UniProt P00846) | inactive: -0.095 |
| MT-CO1 (UniProt P00395) | inactive: -0.002 |
| MRPL58 (UniProt Q14197) | inactive: -0.034 |
| MTA2 (UniProt O94776) | inactive: 0.017 |
| MTCH1 (UniProt Q9NZJ7) | inactive: -0.017 |
| MTX1 (UniProt Q13505) | inactive: -0.04 |
